Results published in article PMC11005723, “Development of Complementary Photo‐arginine/lysine to Promote Discovery of Arg/Lys hPTMs Interactomes” (Advanced Science, 2024).
The source gives many values for each of these; only a part stands here.

System: HEK293T nuclear lysates
Test: SILAC‐based pull‐down proteomics H4K5me1/H4K5 (probes 6/5)
Type: binding, human

probe 6: H4K5me peptide probe with photo‐arginine R(dz) and K(biotin) (SGRGKGGKGLGKGGK; photo-arginine R(dz) at 3; monomethyl-lysine at 5; K(biotin) at 15)
B6 log2 (H4K5me/H4K5) (protein P31930 UQCRC1, run B6): 0.5155
C6 log (H4K5me/H4K5) (protein P31930 UQCRC1, run C6): 0.5155
B6 log2 (H4K5me/H4K5) (protein P35249 RFC4, run B6): 0.2811
C6 log (H4K5me/H4K5) (protein P35249 RFC4, run C6): 0.4374
B6 log2 (H4K5me/H4K5) (protein P35251 RFC1, run B6): 0.4109
C6 log (H4K5me/H4K5) (protein P35251 RFC1, run C6): 0.4084
B6 log2 (H4K5me/H4K5) (protein P37275 ZEB1, run B6): 0.1351
C6 log (H4K5me/H4K5) (protein P37275 ZEB1, run C6): 0.2443
B6 log2 (H4K5me/H4K5) (protein P38432 COIL, run B6): 0.3267
C6 log (H4K5me/H4K5) (protein P38432 COIL, run C6): 0.1295
B6 log2 (H4K5me/H4K5) (protein P40938 RFC3, run B6): 0.6479
C6 log (H4K5me/H4K5) (protein P40938 RFC3, run C6): 0.6479
B6 log2 (H4K5me/H4K5) (protein P43246 MSH2, run B6): 0.4047
C6 log (H4K5me/H4K5) (protein P43246 MSH2, run C6): 0.4454
B6 log2 (H4K5me/H4K5) (protein P45973 CBX5, run B6): 0.3491
C6 log (H4K5me/H4K5) (protein P45973 CBX5, run C6): 0.2866
B6 log2 (H4K5me/H4K5) (protein P49588 AARS, run B6): 0.2952
C6 log (H4K5me/H4K5) (protein P49588 AARS, run C6): -0.2234
B6 log2 (H4K5me/H4K5) (protein P49790 NUP153, run B6): 0.2928
C6 log (H4K5me/H4K5) (protein P49790 NUP153, run C6): 0.4472
B6 log2 (H4K5me/H4K5) (protein P49916 LIG3, run B6): 0.2629
C6 log (H4K5me/H4K5) (protein P49916 LIG3, run C6): -0.5452
B6 log2 (H4K5me/H4K5) (protein P50402 EMD, run B6): 0.4218
C6 log (H4K5me/H4K5) (protein P50402 EMD, run C6): -0.2397
B6 log2 (H4K5me/H4K5) (protein P52948 NUP98, run B6): 0.4345
C6 log (H4K5me/H4K5) (protein P52948 NUP98, run C6): -0.07342
B6 log2 (H4K5me/H4K5) (protein P55081 MFAP1, run B6): 0.1246
C6 log (H4K5me/H4K5) (protein P55081 MFAP1, run C6): 0.0595
B6 log2 (H4K5me/H4K5) (protein P61964 WDR5, run B6): 0.1204
C6 log (H4K5me/H4K5) (protein P61964 WDR5, run C6): 0.1868
B6 log2 (H4K5me/H4K5) (protein P67936 TPM4, run B6): 1.923
C6 log (H4K5me/H4K5) (protein P67936 TPM4, run C6): 1.923
B6 log2 (H4K5me/H4K5) (protein P78549 NTHL1, run B6): 0.4595
C6 log (H4K5me/H4K5) (protein P78549 NTHL1, run C6): 1.343
B6 log2 (H4K5me/H4K5) (protein PAICS (E9PBS1), run B6): 0.00261
C6 log (H4K5me/H4K5) (protein PAICS (E9PBS1), run C6): 0.3265
B6 log2 (H4K5me/H4K5) (protein PARP1 (P09874), run B6): 0.04296
C6 log (H4K5me/H4K5) (protein PARP1 (P09874), run C6): 0.03527
B6 log2 (H4K5me/H4K5) (protein PATZ1 (Q9HBE1), run B6): 0.109
C6 log (H4K5me/H4K5) (protein PATZ1 (Q9HBE1), run C6): 0.4872
B6 log2 (H4K5me/H4K5) (protein PCBP1 (Q15365), run B6): 0.01999
C6 log (H4K5me/H4K5) (protein PCBP1 (Q15365), run C6): 0.02233
B6 log2 (H4K5me/H4K5) (protein PCBP2 (Q15366), run B6): -0.02517
C6 log (H4K5me/H4K5) (protein PCBP2 (Q15366), run C6): -0.09647
B6 log2 (H4K5me/H4K5) (protein PDCD4 (Q53EL6), run B6): 0.06585
C6 log (H4K5me/H4K5) (protein PDCD4 (Q53EL6), run C6): -0.4032
B6 log2 (H4K5me/H4K5) (protein PDCD11 (Q14690), run B6): 0.1142
C6 log (H4K5me/H4K5) (protein PDCD11 (Q14690), run C6): 0.05176
B6 log2 (H4K5me/H4K5) (protein PDIA3 (P30101), run B6): 0.09632
C6 log (H4K5me/H4K5) (protein PDIA3 (P30101), run C6): 0.2611
B6 log2 (H4K5me/H4K5) (protein PDS5A (Q29RF7), run B6): 0.02979
C6 log (H4K5me/H4K5) (protein PDS5A (Q29RF7), run C6): 0.04248
B6 log2 (H4K5me/H4K5) (protein PELO (Q9BRX2), run B6): 0.04643
C6 log (H4K5me/H4K5) (protein PELO (Q9BRX2), run C6): 0.3608
B6 log2 (H4K5me/H4K5) (protein PELP1 (Q8IZL8), run B6): 0.08624
C6 log (H4K5me/H4K5) (protein PELP1 (Q8IZL8), run C6): 0.6085
B6 log2 (H4K5me/H4K5) (protein PES1 (B5MCF9), run B6): 0.05425
C6 log (H4K5me/H4K5) (protein PES1 (B5MCF9), run C6): 0.06731
B6 log2 (H4K5me/H4K5) (protein PGAM1 (P18669), SILAC run B6): -1.253
C6 log (H4K5me/H4K5) (protein PGAM1 (P18669), SILAC run C6): -1.067
B6 log2 (H4K5me/H4K5) (protein PGK1 (P00558), run B6): 0.03709
C6 log (H4K5me/H4K5) (protein PGK1 (P00558), run C6): -0.01826
B6 log2 (H4K5me/H4K5) (protein PHF6 (Q8IWS0), run B6): 0.04916
C6 log (H4K5me/H4K5) (protein PHF6 (Q8IWS0), run C6): 0.1636
B6 log2 (H4K5me/H4K5) (protein PHF8 (Q9UPP1), run B6): 0.03245
C6 log (H4K5me/H4K5) (protein PHF8 (Q9UPP1), run C6): 1.099
B6 log2 (H4K5me/H4K5) (protein PHF10 (Q8WUB8), run B6): 0.1163
C6 log (H4K5me/H4K5) (protein PHF10 (Q8WUB8), run C6): -0.6344
B6 log2 (H4K5me/H4K5) (protein PIAS1 (O75925), SILAC run B6): -0.2334
C6 log (H4K5me/H4K5) (protein PIAS1 (O75925), SILAC run C6): 0.4779
B6 log2 (H4K5me/H4K5) (protein PIAS4 (Q8N2W9), SILAC run B6): -0.1965
C6 log (H4K5me/H4K5) (protein PIAS4 (Q8N2W9), SILAC run C6): -0.009806
B6 log2 (H4K5me/H4K5) (protein PITRM1 (Q5JRX3), SILAC run B6): -0.7354
C6 log (H4K5me/H4K5) (protein PITRM1 (Q5JRX3), SILAC run C6): -0.4208
B6 log2 (H4K5me/H4K5) (protein PLS3 (P13797), SILAC run B6): -0.4883
C6 log (H4K5me/H4K5) (protein PLS3 (P13797), SILAC run C6): -0.4103
B6 log2 (H4K5me/H4K5) (protein POLDIP3 (Q9BY77), run B6): 0.08728
C6 log (H4K5me/H4K5) (protein POLDIP3 (Q9BY77), run C6): -0.1401
B6 log2 (H4K5me/H4K5) (protein PPIA (P62937), run B6): 0.03941
C6 log (H4K5me/H4K5) (protein PPIA (P62937), run C6): 0.03601
B6 log2 (H4K5me/H4K5) (protein PPM1G (O15355), SILAC run B6): -0.1966
C6 log (H4K5me/H4K5) (protein PPM1G (O15355), SILAC run C6): -0.3954
B6 log2 (H4K5me/H4K5) (protein PPP1CC (P36873), run B6): 0.0276
C6 log (H4K5me/H4K5) (protein PPP1CC (P36873), run C6): 0.09592
B6 log2 (H4K5me/H4K5) (protein PRC1 (O43663), SILAC run B6): -0.3094
C6 log (H4K5me/H4K5) (protein PRC1 (O43663), SILAC run C6): -0.2946
B6 log2 (H4K5me/H4K5) (protein PRKCSH (P14314), run B6): 0.02378
C6 log (H4K5me/H4K5) (protein PRKCSH (P14314), run C6): 0.03031
B6 log2 (H4K5me/H4K5) (protein PRPF4 (O43172), run B6): 0.1177
C6 log (H4K5me/H4K5) (protein PRPF4 (O43172), run C6): -0.331
B6 log2 (H4K5me/H4K5) (protein PRPF19 (Q9UMS4), run B6): 0.0001874
C6 log (H4K5me/H4K5) (protein PRPF19 (Q9UMS4), run C6): -0.153
B6 log2 (H4K5me/H4K5) (protein PRPF31 (E7EVX8), SILAC run B6): -0.5083
C6 log (H4K5me/H4K5) (protein PRPF31 (E7EVX8), SILAC run C6): 0.6262
B6 log2 (H4K5me/H4K5) (protein PRPF40A (O75400), run B6): 0.03392
C6 log (H4K5me/H4K5) (protein PRPF40A (O75400), run C6): 0.06034
B6 log2 (H4K5me/H4K5) (protein PSPC1 (Q8WXF1), SILAC run B6): -0.8388
C6 log (H4K5me/H4K5) (protein PSPC1 (Q8WXF1), SILAC run C6): 0.775
B6 log2 (H4K5me/H4K5) (protein PTBP1 (A6NLN1), run B6): 0.06671
C6 log (H4K5me/H4K5) (protein PTBP1 (A6NLN1), run C6): 0.04252
B6 log2 (H4K5me/H4K5) (protein PTGES3 (Q15185), run B6): 0.09539
C6 log (H4K5me/H4K5) (protein PTGES3 (Q15185), run C6): 0.1044
B6 log2 (H4K5me/H4K5) (protein PTMA (B8ZZQ6), run B6): 0.05332
C6 log (H4K5me/H4K5) (protein PTMA (B8ZZQ6), run C6): 0.04849
B6 log2 (H4K5me/H4K5) (protein Q05BQ5 MBTD1, run B6): 0.6459
C6 log (H4K5me/H4K5) (protein Q05BQ5 MBTD1, run C6): 0.6459
B6 log2 (H4K5me/H4K5) (protein Q5T3I0 GPATCH4, run B6): 0.5137
C6 log (H4K5me/H4K5) (protein Q5T3I0 GPATCH4, run C6): 0.5137
B6 log2 (H4K5me/H4K5) (protein Q6I9Y2 THOC7, run B6): 0.2875
C6 log (H4K5me/H4K5) (protein Q6I9Y2 THOC7, run C6): 0.2546
B6 log2 (H4K5me/H4K5) (protein Q6ZW49 PAXIP1, run B6): 0.1189
C6 log (H4K5me/H4K5) (protein Q6ZW49 PAXIP1, run C6): 0.1287
B6 log2 (H4K5me/H4K5) (protein Q8IVW6 ARID3B, run B6): 0.5018
